At least one peptide structure holds a part that was inferred or is arguable (an end, a ring closure or a residue). Where a SMILES comes first, the peptide text is derived from it.
System: pentobarbitone anaesthetised rat
Test: Cardiovascular actions (mean arterial pressure, heart rate) after i.v. administration in anaesthetised rats
Format: in vivo
Method: Groups of 4 to 6 male Sprague-Dawley rats (285-315 g) were anaesthetised with sodium pentobarbitone (60 mg Kg^-1 i.p.). The trachea, left carotid artery and left jugular vein were cannulated. Blood pressure was recorded from the carotid artery on a Grass polygraph via a Statham P23 ID pressure transducer and mean arterial pressure derived from the trace. Heart rate was measured by a tachograph (Grass model 7P4) triggered by the blood pressure signal. […] Purified rat CGRP was from the same source. All synthetic preparations were subject to mass spectrometry (M-Scan Ltd.) to confirm structure and purity before use. […] All compounds were administered intravenously except for mepyramine (s.c.). […] The peak fall in mean arterial pressure (MAP) and heart rate (HR) after 2 min was measured.
The mechanism of action of PDA-4 was not examined.

CC(C)C[C@H](NC(=O)[C@@H](N)CC(=O)O)C(=O)N[C@@H](CCC(N)=O)C(=O)N[C@@H](C)C(=O)O [PDA-4, Asp-Leu-Gln-Ala] (H-DLQA-OH)
drop in mean arterial pressure (10 ug/kilo i.v.): 15-20 mm Hg
increase in heart beat rate (10 ug/kilo i.v.): 15-20 bpm
potency relative to human CGRP (fold less potent) (i.v., anaesthetised rat, FIG. 7): 50-100 fold
cardiovascular action (overall) (i.v., anaesthetised rats): small but significant effect

— US5374618A, “Calcitonin peptides, and gene related pharmaceutical compositions” (Celltech Limited, priority 1983, dated 1994)
